Reference: article PMC4476799, “Englerin A Agonizes the TRPC4/C5 Cation Channels to Inhibit Tumor Cell Line Proliferation” (PLoS ONE, 2015)
This continues a long series; more values of the same kind are listed elsewhere.

Test system: cancer cell lines from the cancer cell line encyclopedia (CCLE)
Experiment: Cell line profiling (CLiP) proliferation experiment
Format: cell-based
Parameters: ACTIVITY_AREA: scale not given here; AMAX: unit not given here
Protocol: Compound profiling experiment and data analysis was performed as previously described. Data was imported and plotted using the Tibco Spotfire DXP application. Lines were categorized as sensitive, intermediate and refractory as follows: Amax<-40 & Inflection Point <2 ~ Sensitive, Amax>-20 & Inflection Point >10 ~ Refractory, all else were called Intermediate. Cancer Cell line HG-U133 Plus 2 data was processed and normalized as described. […] Five sets of refractory cell lines were generated from the pool of refractory cell lines trying to match the lineage composition of the set of sensitive cell lines. The limma package was used as previously described to perform the statistical comparison.

[1] = cell line Hs 611.T, haematopoietic_and_lymphoid_tissue

For `CC(C)[C@@]12C[C@@H](O)[C@@](C)(O1)[C@@H]1CC[C@@H](C)[C@H]1[C@@H]2OC(=O)/C=C/c1ccccc1` [Englerin B], the AMAX (cell line HUP-T3, pancreas) was -29.27, the RESPONSE (cell line HUP-T3, pancreas) was “INTERMEDIATE” and the ACTIVITY_AREA (cell line Hey-A8) was 77.57. For the same molecule, the AMAX (cell line Hey-A8) was -44.95, the RESPONSE (cell line Hey-A8) was “INTERMEDIATE” and the ACTIVITY_AREA (cell line Hey-A8, ovary) was 77.57. For the same molecule, the AMAX (cell line Hey-A8, ovary) was -44.95, the RESPONSE (cell line Hey-A8, ovary) was “INTERMEDIATE” and the ACTIVITY_AREA (cell line Hs 294T) was 50.66. The AMAX (cell line Hs 294T) was -37.15, the RESPONSE (cell line Hs 294T) was “INTERMEDIATE” and the ACTIVITY_AREA (cell line Hs 294T, skin) was 50.66. The AMAX (cell line Hs 294T, skin) was -37.15, the RESPONSE (cell line Hs 294T, skin) was “INTERMEDIATE” and the ACTIVITY_AREA (cell line Hs 571.T) was 42.86. For the same molecule, the AMAX (cell line Hs 571.T) was -75.68, the RESPONSE (cell line Hs 571.T) was “INTERMEDIATE” and the ACTIVITY_AREA (cell line Hs 571.T, ovary) was 42.86. For the same molecule, the AMAX (cell line Hs 571.T, ovary) was -75.68, the RESPONSE (cell line Hs 571.T, ovary) was “INTERMEDIATE” and the ACTIVITY_AREA (cell line Hs 578T) was 18.42. The AMAX (cell line Hs 578T) was -43.69, the RESPONSE (cell line Hs 578T) was “INTERMEDIATE” and the ACTIVITY_AREA (cell line Hs 578T, breast) was 18.42. For the same molecule, the AMAX (cell line Hs 578T, breast) was -43.69, the RESPONSE (cell line Hs 578T, breast) was “INTERMEDIATE” and the ACTIVITY_AREA (cell line Hs 611.T) was 40.16. The AMAX (cell line Hs 611.T) was -68.78, the RESPONSE (cell line Hs 611.T) was “INTERMEDIATE” and the ACTIVITY_AREA [1] was 40.16. For the same molecule, the AMAX [1] was -68.78, the RESPONSE [1] was “INTERMEDIATE” and the ACTIVITY_AREA (cell line Hs 695T) was 4.29. The AMAX (cell line Hs 695T) was -16.44, the RESPONSE (cell line Hs 695T) was “REFRACTORY” and the ACTIVITY_AREA (cell line Hs 695T, skin) was 4.29. For the same molecule, the AMAX (cell line Hs 695T, skin) was -16.44, the RESPONSE (cell line Hs 695T, skin) was “REFRACTORY” and the ACTIVITY_AREA (cell line Hs 729) was 88.04. For the same molecule, the AMAX (cell line Hs 729) was -35.93, the RESPONSE (cell line Hs 729) was “INTERMEDIATE” and the ACTIVITY_AREA (cell line Hs 729, soft_tissue) was 88.04. The AMAX (cell line Hs 729, soft_tissue) was -35.93, the RESPONSE (cell line Hs 729, soft_tissue) was “INTERMEDIATE” and the ACTIVITY_AREA (cell line Hs 766T) was 126.47. For the same molecule, the AMAX (cell line Hs 766T) was -40.46, the RESPONSE (cell line Hs 766T) was “INTERMEDIATE” and the ACTIVITY_AREA (cell line Hs 766T, pancreas) was 126.47. For the same molecule, the AMAX (cell line Hs 766T, pancreas) was -40.46, the RESPONSE (cell line Hs 766T, pancreas) was “INTERMEDIATE” and the ACTIVITY_AREA (cell line Hs 936.T) was 11.99. The AMAX (cell line Hs 936.T) was -23.37, the RESPONSE (cell line Hs 936.T) was “INTERMEDIATE” and the ACTIVITY_AREA (cell line Hs 936.T, skin) was 11.99. The AMAX (cell line Hs 936.T, skin) was -23.37, the RESPONSE (cell line Hs 936.T, skin) was “INTERMEDIATE” and the ACTIVITY_AREA (cell line Hs 939.T) was 21.39. For the same molecule, the AMAX (cell line Hs 939.T) was 4.1, the RESPONSE (cell line Hs 939.T) was “REFRACTORY” and the ACTIVITY_AREA (cell line Hs 939.T, skin) was 21.39. For the same molecule, the AMAX (cell line Hs 939.T, skin) was 4.1, the RESPONSE (cell line Hs 939.T, skin) was “REFRACTORY” and the ACTIVITY_AREA (cell line Hs 940.T, skin) was 53.93. The AMAX (cell line Hs 940.T, skin) was -48.14, the RESPONSE (cell line Hs 940.T, skin) was “INTERMEDIATE” and the ACTIVITY_AREA (cell line Hs 944.T) was 34.71. The AMAX (cell line Hs 944.T) was -61.74, the RESPONSE (cell line Hs 944.T) was “INTERMEDIATE” and the ACTIVITY_AREA (cell line Hs 944.T, skin) was 34.71. For the same molecule, the AMAX (cell line Hs 944.T, skin) was -61.74, the RESPONSE (cell line Hs 944.T, skin) was “INTERMEDIATE” and the ACTIVITY_AREA (cell line HuG1-N) was 135.88. For the same molecule, the AMAX (cell line HuG1-N) was -58.8, the RESPONSE (cell line HuG1-N) was “INTERMEDIATE” and the ACTIVITY_AREA (cell line HuG1-N, stomach) was 135.88. The AMAX (cell line HuG1-N, stomach) was -58.8, the RESPONSE (cell line HuG1-N, stomach) was “INTERMEDIATE” and the ACTIVITY_AREA (cell line IGR-1, skin) was 22.7. For the same molecule, the AMAX (cell line IGR-1, skin) was 1.27, the RESPONSE (cell line IGR-1, skin) was “REFRACTORY” and the ACTIVITY_AREA (cell line IGR-37) was 61.7. The AMAX (cell line IGR-37) was -54.26, the RESPONSE (cell line IGR-37) was “INTERMEDIATE” and the ACTIVITY_AREA (cell line IGR-37, skin) was 61.7. The AMAX (cell line IGR-37, skin) was -54.26, the RESPONSE (cell line IGR-37, skin) was “INTERMEDIATE” and the ACTIVITY_AREA (cell line IGR-39) was 70.27.
